The target in test [1] is His-tagged recombinant human Gal-3 (hGal-3) (Homo sapiens, UniProt P17931). Nature of the test: Gal-3 HTRF assay (His-tagged hGal-3 / B-ASF). To be noted: read-out: hGal-3 IC50, 15 nM hGal-3, 15 nM B-ASF. Here is the method: ASSAY BUFFER Composition: 25 mM HEPES, 100 mM NaCl, 0.005% Tween 20, 0.05% BSA prepared in sterile water (all reagents from Sigma).
• Positive Control: 100% DMSO (1 μL)+His-tagged hGal-3 (20 μL)+B-ASF (20 μL)+Anti-His Terbium Antibody (5 μL)+Strep d2 Antibody (5 μL). • Negative Control: 100% DMSO (1 μL)+His-tagged hGal-3 (20 μL)+Anti His Terbium Antibody (5 μL)+Strep d2 Aantibody (5 μL). Stocks Preparation:
PROTOCOL: The Gal-3 assays were performed in 384 white Opti plates in three replicates at room temperature with gentle shaking at 250-300 rpmFrom the original stocks, […] working stock concentrations of His-tagged recombinant human Gal-3 (hGal-3) and that of B-ASF were prepared. From the working stock, 20 μL of hGal-3 (15 nM) and 20 μL B-ASF (15 nM) were added to the plates. In Negative Control, only hGal-3 was added. A concentration range of 50× working stocks were prepared for the compounds in 100% DMSO. Aliquots of luL of the compounds were added to the wells and pre-incubated with 20 μL hGal-3 per well for 30 minutes Then 20 μL B-ASF wereadded and incubated for another 1 hour. […] The assay signal was detected using HTRF screen protocol (Excitation wavelength=340 nm, emission wavelength=615 nm/665 nm) on Envision 2104 Multilabel Reader. Data analysed using Toolset and Curve Master. […]
For orientation: Time-resolved FRET reads energy transfer from a long-lived donor to a nearby acceptor.

Chains of the proteins cited; added tags and fusions are not shown.
UniProt P17931, whole entry: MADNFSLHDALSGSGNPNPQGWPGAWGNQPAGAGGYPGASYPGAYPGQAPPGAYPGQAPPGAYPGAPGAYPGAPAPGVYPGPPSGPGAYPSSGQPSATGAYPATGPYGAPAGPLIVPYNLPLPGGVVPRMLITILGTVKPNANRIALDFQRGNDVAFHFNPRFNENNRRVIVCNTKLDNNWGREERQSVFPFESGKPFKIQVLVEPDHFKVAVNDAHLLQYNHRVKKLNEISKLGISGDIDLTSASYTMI
UniProt Q96SW2, whole entry: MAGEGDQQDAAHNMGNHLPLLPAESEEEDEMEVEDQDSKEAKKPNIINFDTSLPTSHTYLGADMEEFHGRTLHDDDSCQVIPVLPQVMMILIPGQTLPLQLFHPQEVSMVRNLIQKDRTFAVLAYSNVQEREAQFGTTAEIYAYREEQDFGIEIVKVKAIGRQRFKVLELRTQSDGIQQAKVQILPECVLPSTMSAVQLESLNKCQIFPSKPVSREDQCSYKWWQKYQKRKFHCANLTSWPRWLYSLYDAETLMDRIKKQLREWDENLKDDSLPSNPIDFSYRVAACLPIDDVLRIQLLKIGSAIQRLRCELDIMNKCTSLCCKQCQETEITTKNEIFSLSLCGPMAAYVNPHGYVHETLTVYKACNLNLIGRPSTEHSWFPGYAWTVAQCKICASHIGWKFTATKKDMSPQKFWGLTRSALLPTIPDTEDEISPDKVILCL

Test [2] has as its target hCRBN (NanoLuc-CRBN fusion construct in HEK-293 cells) (Homo sapiens, UniProt Q96SW2). In words: CRBN BRET Target Engagement. As to conditions: read-out: hCRBN IC50; NanoLuc-CRBN transfected HEK-293 cells, BRET with CRBN Probe. As for the experimental part:
CRBN BRET Target Engagement (hCRBN IC50 (μM))
NanoLuc-CRBN fusion construct was transfected in HEK-293 cells using FuGENE HD (Promega) according to the manufacturer's protocol. In brief, Nluc-CRBN was diluted into Transfection Carrier DNA (Promega) 1:10 (mass/mass), to which FuGENE HD was 1:3 (μg DNA:μL FuGENE HD). One part (vol) of DNA:FuGENE HD complexes were combined with 20 parts (vol) of HEK-293 cells suspended at a density of […]. Cells were incubated for ˜20 hr at 37° C./5% CO2. Following transfection, cells were washed and resuspended at 200,000 cells/mL in OptiMEM without phenol red (Gibco).
For BRET measurements, cells were seeded in a 384-well nonbinding surface plate (Corning) plate for a final count of 10,000 cells/well. Compounds were dissolved at 10 mM in dimethylsulfoxide (DMSO) and evaluated at eleven concentrations using a high concentration of […]. CRBN Probe was used for equilibrium measurements, employing a final concentration of approximately EC50-80. For live-cell measurements, 20 nM of CRBN Probe was added. For the live-cell assay conditions, the plates were incubated for 2 hours at 37° C./5% CO2. […] For all BRET experiments, the Envision 2015 (Perkin Elmer) equipped with a BRET2 Enh mirror, BRET 647 nM/75 nM Bandwidth and BC703 460 nM/80 nM Bandwidth filters was used for readouts. Each read was integrated for 0.5 s. […]
(BRET reads energy transfer from a luciferase to a nearby fluorophore.)

Among the data in patent US12291522B2, “Galectin-3 inhibitors” (BRISTOL-MYERS SQUIBB COMPANY, priority 2020, dated 2025) are IC50 values, retold here.

For orientation: IC50 means the point on the concentration scale where inhibition reaches its midpoint.

The structures given here were assigned with low confidence; some may be wrong.

As to `Cc1nc([C@@H]2O[C@H](CO)[C@H](O)[C@H](n3cc(-c4cc(F)c(Cl)c(F)c4)nn3)[C@H]2OCCOc2ccc(C(=O)Nc3ccc4c(c3)CN(C3CCC(=O)NC3=O)C4=O)nc2)n(-c2cc(Cl)ccc2C(F)(F)F)n1` (some centres unmarked), the figures for the IC50 in test [1] and in test [2] were 74 nM and 214 nM, respectively.
